Results published in patent US7718804B2, “Quaternary nitrogen heterocyclic compounds for detecting aqueous monosaccharides in physiological fluids” (University of Maryland Biotechnology Institute, priority 2003, dated 2010).

Assays:
[1] = Chloride quenching of fluorescence (Stern-Volmer constant); assay type: physicochemical; conditions: in water
[2] = pKa from normalized fluorescence intensity versus pH, with and without 100 mM sugar; assay type: physicochemical; conditions: pH 3→11
Source text: A normalized plot of intensity at 427 nm as a function of pH is shown in FIG. 6, wherein I is the emission intensity at the specified pH and Io is the initial emission intensity at pH 3.0. Though not to be bound by theory, it is likely that the change in fluorescence intensity relative to pH value is attributed to the change in hybridization of the boron atom with increasing pH. At low pH values, the boronic acid group is an electron-deficient Lewis acid that is sp^2-hybridized and thus is trigonal planar. As the pH increases, the anionic form of the boronic acid begins to form, which corresponds to a more electron rich sp^3-hybridized boron atom and an […] shape. The change in the geometry of the boron atom induces the fluorescence spectral changes of the molecular sensing moieties.
Based on previously reported pKa values for boronic acid compounds, these pKa values are the lowest reported for a phenyl boronic acid derivative. […] Importantly, the large decrease in the pKa of the boronic acid-sugar complex relative to the uncomplexed boronic acid, allows for the quantitative detection of monosaccharides at or below physiological pH because substantial optical changes are observed. […]

SMILES: Cc1ccc2c(ccc[n+]2Cc2ccccc2B(O)O)c1.[Br-] [o-BMQBA, N-(2-boronobenzyl)-6-methylquinolinium bromide]
- Stern-Volmer constant KSV (chloride quenching) [1]: 44.0 M⁻¹

SMILES: COc1ccc2c(ccc[n+]2Cc2ccccc2)c1 [BMOQ, N-benzyl-6-methoxyquinolinium bromide]
- change of fluorescence intensity with pH [2]: no corresponding change in intensity with pH change
- Stern-Volmer constant KSV (chloride quenching) [1]: 222 M⁻¹

SMILES: Cc1ccc2c(ccc[n+]2Cc2ccccc2)c1 [BMQ, N-benzyl-6-methylquinolinium bromide]
- change of fluorescence intensity with pH [2]: no change in intensity with pH change
- Stern-Volmer constant KSV (chloride quenching) [1]: 35.0 M⁻¹

SMILES: COc1ccc2c(ccc[n+]2Cc2ccccc2B(O)O)c1.[Br-] [o-BMOQBA, N-(2-boronobenzyl)-6-methoxyquinolinium bromide]
- Stern-Volmer constant KSV (chloride quenching) [1]: 170 M⁻¹
